Reference: PMC5320500
Changes are numbered by the printed parent chain. Results are given in words; binding and its absence hold for the method and conditions named. In cells and extracts the contact can be indirect. A yes stands for co-enrichment or nearness to the bait. Other partners may have been found. For part of these data: A no says only that the protein was not detected with the bait.

By UniProt entry, the sequences of proteins in these tests, tags left out.
UniProt Q8L5V0: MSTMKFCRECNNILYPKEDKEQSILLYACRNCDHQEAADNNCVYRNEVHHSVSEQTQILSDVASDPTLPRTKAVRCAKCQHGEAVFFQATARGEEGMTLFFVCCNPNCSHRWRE
UniProt Q5D869: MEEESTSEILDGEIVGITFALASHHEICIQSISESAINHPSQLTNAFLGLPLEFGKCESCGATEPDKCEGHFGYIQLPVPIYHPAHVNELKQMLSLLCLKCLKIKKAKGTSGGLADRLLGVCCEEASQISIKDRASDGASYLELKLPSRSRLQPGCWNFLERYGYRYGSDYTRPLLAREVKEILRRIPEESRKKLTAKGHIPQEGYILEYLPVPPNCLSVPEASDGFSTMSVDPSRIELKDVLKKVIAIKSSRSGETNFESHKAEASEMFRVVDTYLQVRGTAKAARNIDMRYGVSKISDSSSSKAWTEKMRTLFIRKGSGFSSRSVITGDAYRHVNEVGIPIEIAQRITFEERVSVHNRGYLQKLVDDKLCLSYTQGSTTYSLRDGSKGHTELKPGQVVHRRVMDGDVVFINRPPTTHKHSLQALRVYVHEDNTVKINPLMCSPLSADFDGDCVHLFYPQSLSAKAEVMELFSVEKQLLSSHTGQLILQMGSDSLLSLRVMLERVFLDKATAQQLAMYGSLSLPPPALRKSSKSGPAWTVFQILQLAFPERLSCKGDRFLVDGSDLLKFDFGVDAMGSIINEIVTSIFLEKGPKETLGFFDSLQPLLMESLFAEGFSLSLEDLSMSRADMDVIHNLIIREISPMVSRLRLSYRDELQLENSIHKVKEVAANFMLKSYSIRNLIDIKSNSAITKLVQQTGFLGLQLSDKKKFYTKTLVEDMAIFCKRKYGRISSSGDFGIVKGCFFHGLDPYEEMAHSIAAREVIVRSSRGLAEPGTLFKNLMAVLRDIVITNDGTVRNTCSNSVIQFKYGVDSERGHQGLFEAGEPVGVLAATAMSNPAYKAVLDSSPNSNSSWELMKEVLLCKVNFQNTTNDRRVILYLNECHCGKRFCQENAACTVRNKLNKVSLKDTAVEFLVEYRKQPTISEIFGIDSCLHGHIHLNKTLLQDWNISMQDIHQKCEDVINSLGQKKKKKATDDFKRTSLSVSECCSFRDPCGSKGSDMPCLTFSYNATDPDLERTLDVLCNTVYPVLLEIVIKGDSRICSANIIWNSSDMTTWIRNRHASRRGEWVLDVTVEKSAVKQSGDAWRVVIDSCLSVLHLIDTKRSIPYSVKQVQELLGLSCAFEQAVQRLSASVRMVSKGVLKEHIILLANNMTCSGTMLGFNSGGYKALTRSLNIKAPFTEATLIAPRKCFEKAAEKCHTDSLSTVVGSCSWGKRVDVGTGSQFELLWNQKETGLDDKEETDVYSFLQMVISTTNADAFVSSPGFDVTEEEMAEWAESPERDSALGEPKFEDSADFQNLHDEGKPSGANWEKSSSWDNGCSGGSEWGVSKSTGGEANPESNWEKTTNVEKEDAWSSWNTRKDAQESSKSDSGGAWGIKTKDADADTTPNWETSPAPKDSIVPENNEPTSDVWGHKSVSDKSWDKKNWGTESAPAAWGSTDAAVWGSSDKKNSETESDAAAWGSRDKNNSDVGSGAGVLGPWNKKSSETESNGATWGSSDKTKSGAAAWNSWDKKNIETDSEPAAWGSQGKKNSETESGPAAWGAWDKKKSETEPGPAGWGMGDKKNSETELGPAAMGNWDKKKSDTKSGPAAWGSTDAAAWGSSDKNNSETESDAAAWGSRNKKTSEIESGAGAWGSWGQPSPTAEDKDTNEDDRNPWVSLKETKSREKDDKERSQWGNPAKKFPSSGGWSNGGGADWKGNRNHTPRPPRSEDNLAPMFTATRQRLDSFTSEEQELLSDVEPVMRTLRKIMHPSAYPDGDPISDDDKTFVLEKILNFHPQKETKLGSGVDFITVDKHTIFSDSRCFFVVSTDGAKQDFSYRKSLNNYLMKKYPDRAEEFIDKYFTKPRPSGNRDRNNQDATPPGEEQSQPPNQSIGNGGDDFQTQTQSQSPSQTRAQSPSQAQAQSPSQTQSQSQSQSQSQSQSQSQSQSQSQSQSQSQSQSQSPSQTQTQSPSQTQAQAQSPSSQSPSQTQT

B1: NRPE7 (protein, UniProt A6QRA1 1-178)
chain: MFLKVQLPWNVMIPAENMDAKGLMLKRAILVELLEAFASKKATKELGYYVAVTTLDKIGEGKIREHTGEVLFPVMFSGMTFKIFKGEIIHGVVHKVLKHGVFMRCGPIENVYLSYTKMPDYKYIPGENPIFMNEKTSRIQVETTVRVVVIGIKWMEVEREFQALASLEGDYLGPLSEE
B2: NRPE8b (protein, UniProt Q9M1A8 1-146)
chain: MASNIIMFEDIFVVDKLDPDGKKFDKVTRVEARSHNLEMFMHLDVNTEVYPLAVGDKFTLAMAPTLNLDGTPDTGYFTPGAKKTLADKYEYIMHGKLYKISERDGKTPKAELYVSFGGLLMLLQGDPAHISHFELDQRLFLLMRKL
B3: NRPE3b (protein, UniProt Q39212 1-319)
chain: MDGVTYQRFPTVKIRELKDDYAKFELRETDVSMANALRRVMISEVPTMAIHLVKIEVNSSVLNDEFIAQRLSLIPLTSERAMSMRFCQDCEDCNGDEHCEFCSVEFPLSAKCVTDQTLDVTSRDLYSADPTVTPVDFTSNSSTSDSSEHKGIIIAKLRRGQELKLKALARKGIGKDHAKWSPAATVTYMYEPDIIINEEMMNTLTDEEKIDLIESSPTKVFGIDPVTGQVVVVDPEAYTYDEEVIKKAEAMGKPGLIEIHPKHDSFVFTVESTGALKASQLVLNAIDILKQKLDAIRLSDNTVEADDQFGELGAHMREG
B4: NRPE4 (protein, UniProt Q6DBA5 1-205)
chain: MSEKGGKGLKSSLKSKDGGKDGSSTKLKKGRKIHFDQRTPPANYKILNVSSDQQPFQSSAAKCGKSDKPTKSSKNSLHSFELKDLPENAECMMDCEAFQILDGIKGQLVGLSEDPSIKIPVSYDRALAYVESCVHYTNPQSVRKVLEPLKTYGISDGEMCVIANASSESVDEVLAFIPSLKTKKEVINQPLQDALEELSKLKKSE
B5: NRPE11 (protein, UniProt Q38859 1-116)
chain: MNAPERYERFVVPEGTKKVSYDRDTKIINAASFTVEREDHTIGNIVRMQLHRDENVLFAGYQLPHPLKYKIIVRIHTTSQSSPMQAYNQAINDLDKELDYLKNQFEAEVAKFSNQF
B6: NRPE9a (protein, UniProt Q6NLH0 1-114)
chain: MSTMKFCRECNNILYPKEDKEQKILLYACRNCDHQEVADNSCVYRNEVHHSVSERTQILTDVASDPTLPRTKAVRCSKCQHREAVFFQATARGEEGMTLFFVCCNPNCGHRWRE
B7: NRPE9b (protein, UniProt Q8L5V0 1-114)
chain: B6 chain with K23S, V37A, S41N, R55Q, T60S, S77A, R82G, G109S
B8: SnRK2.1 (enzyme, UniProt P43292 1-353)
chain: MDKYDVVKDLGAGNFGVARLLRHKDTKELVAMKYIERGRKIDENVAREIINHRSLKHPNIIRFKEVILTPTHLAIVMEYASGGELFDRICTAGRFSEAEARYFFQQLICGVDYCHSLQICHRDLKLENTLLDGSPAPLLKICDFGYSKSSILHSRPKSTVGTPAYIAPEVLSRREYDGKHADVWSCGVTLYVMLVGAYPFEDPNDPKNFRKTIQRIMAVQYKIPDYVHISQECKHLLSRIFVTNSAKRITLKEIKNHPWYLKNLPKELLESAQAAYYKRDTSFSLQSVEDIMKIVGEARNPAPSTSAVKSSGSGADEEEEEDVEAEVEEEEDDEDEYEKHVKEAQSCQESDKA
B9: actin-related protein 7 (protein, UniProt Q8L4Y5 1-363)
chain: MEALVVDAGSKFLKAGAAIPDQSPAMIIPSQMKRMVDDGSSSADNPTTVFEDVTLDPIERGLIRDWDAMEDLLRYVVYTGLGWEEGNEGNILFTDPLCTPKAIREQLVQLMFETFNVSGFYASEQAVLSLYAVGRISGCTVDIGHGKIDIAPVLEGAVQHIASKRFELGGTELTKLFAQELGKTNPSMNLSMSDVEKLKEQYANCAEDEIAYKKTQNCEIEQHTLPDGQVISIGRERYSVGEALFQPSILGLEEHGIVEQLVRIISTVSSENHRQLLENTVLCGGTTSMTGFESRFQKEANLCSSAIRPTLVKPPEYMPENLGMYSAWVGGAILAKVVFPQNQHVTKADYDETGPSVVHRKCF
B10: rubisco activase (protein, UniProt P10896 59-474)
chain: AVKEDKQTDGDRWRGLAYDTSDDQQDITRGKGMVDSVFQAPMGTGTHHAVLSSYEYVSQGLRQYNLDNMMDGFYIAPAFMDKLVVHITKNFLTLPNIKVPLILGIWGGKGQGKSFQCELVMAKMGINPIMMSAGELESGNAGEPAKLIRQRYREAADLIKKGKMCCLFINDLDAGAGRMGGTTQYTVNNQMVNATLMNIADNPTNVQLPGMYNKEENARVPIICTGNDFSTLYAPLIRDGRMEKFYWAPTREDRIGVCKGIFRTDKIKDEDIVTLVDQFPGQSIDFFGALRARVYDDEVRKFVESLGVEKIGKRLVNSREGPPVFEQPEMTYEKLMEYGNMLVMEQENVKRVQLAETYLSQAALGDANADAIGRGTFYGKGAQQVNLPVPEGCTDPVAENFDPTARSDDGTCVYNF
B11: unknown protein AT1G13930 (protein, UniProt Q9XI93 1-155)
chain: MNFISDQVKKLSSSTPEEPDHNKPVEGTETATRPATNAELMASAKVVAEAAQAAARNESDKLDKGKVAGASADILDAAEKYGKFDEKSSTGQYLDKAEKYLNDYESSHSTGAGGPPPPTSQAEPASQPEPAAKKDDEESGGGLGGYAKMAQGFLK
B12: PYK10-binding protein 1 (protein, UniProt O04314 1-298)
chain: MAQKVEAQGGKGANLWDDGSTHDAVTKIQLAAGIDGIQYVQFDYVKNGQPEQAPLRGTKGRVLPADPFVINHPDEHLVSVEGWYSPEGIIQGIKFISNKKTSDVIGSDEGTHFTLQVKDKKIIGFHGSAGGNLNSLGAYFAPLTTTTPLTPAKQLTAFGSDDGTVWDDGAYVGVKKVYVGQAQDGISAVKFVYDKSPEEVTGEEHGKSTLLGFEEFVLDYPSEYITAVDGTYDKIFGSDGSVITMLRFKTNKQTSPPFGLEAGTVFELKEEGHKIVGFHGRADVLLHKIGVHVRPLSN
B13: RNA-directed DNA methylation 4 (protein, UniProt Q8GYP3 1-346)
chain: MDGVGESSTQNEVEEKPVIVRVKRKVGQSLLDAFWLEINERPLKRPTLDFSKLSISDSGERGPSVAEDVKPKKVLVRHLETVTDSETTADIIHSFFESDHNEKSCSKGKFEERKIAFKKDNRKEQRLTKSVQKQQIASENARFEQIWRSRKGNKEGIHEKCHFFDVIRVDTEERRDNAQEFTSLEDQKMLASFLPLLRECIPTAAEEIEADIQSSHTEEYVYDYYAVNEEMDISEDSSKNQFPLVIVEDEEEFCDGSDESDYDSEDSNAEDHPKTDYPEEEEEEEEEDDDDDDDDESEEEKSEASDESDDEETSKRHVRSVLGDDEFDDYAEDVYGYSESDEEFES
B14: DNAJ homologue 3 (protein, UniProt Q94AW8 1-420)
chain: MFGRGPSKKSDNTKFYEILGVPKSASPEDLKKAYKKAAIKNHPDKGGDPEKFKELAQAYEVLSDPEKREIYDQYGEDALKEGMGGGGGGHDPFDIFSSFFGGGPFGGNTSRQRRQRRGEDVVHPLKVSLEDVYLGTMKKLSLSRNALCSKCNGKGSKSGASLKCGGCQGSGMKVSIRQLGPGMIQQMQHACNECKGTGETINDRDRCPQCKGDKVIPEKKVLEVNVEKGMQHSQKITFEGQADEAPDTVTGDIVFVLQQKEHPKFKRKGEDLFVEHTLSLTEALCGFQFVLTHLDGRSLLIKSNPGEVVKPDSYKAISDEGMPIYQRPFMKGKLYIHFTVEFPDSLSPDQTKALEAVLPKPSTAQLSDMEIDECEETTLHDVNIEDEMRRKAQAQREAYDDDDEDDDHPGGAQRVQCAQQ
B15: glycine rich protein 7 (protein, UniProt Q03250 1-176)
chain: MASGDVEYRCFVGGLAWATDDRALETAFAQYGDVIDSKIINDRETGRSRGFGFVTFKDEKAMKDAIEGMNGQDLDGRSITVNEAQSRGSGGGGGHRGGGGGGYRSGGGGGYSGGGGSYGGGGGRREGGGGYSGGGGGYSSRGGGGGSYGGGRREGGGGYGGGEGGGYGGSGGGGGW

Molecular target: NRPE1-FLAG (largest subunit of nuclear RNA polymerase V) (Arabidopsis thaliana) (UniProt Q5D869)
Experiment: affinity purification with mass spectrometry; anti-FLAG M2 beads (non-methylated, Control 1 and 2, or dimethylated) in lysate of 14-day NRPE1-FLAG transgenic Arabidopsis seedlings, 4 °C, 3 h; on-bead digestion by trypsin, or by Lys-C and then trypsin; LC MS/MS; three biological repeats

binding	Binder
binds	B1
binds	B2
binds	B3
binds	B4
binds	B5
binds	B6
binds	B7

Molecular target: NRPE1-FLAG (Arabidopsis thaliana) (UniProt Q5D869)
Experiment: affinity purification with mass spectrometry; anti-FLAG M2 beads (lysines dimethylated, or non-methylated as controls 1 and 2) incubated 3 h at 4 °C with lysate of 14-day NRPE1-FLAG transgenic Arabidopsis seedlings (50 mM Tris-HCl pH 7.5, 150 mM NaCl, 5 mM MgCl2, 10% glycerol, 0.1% NP-40); on-bead digestion with Lys-C then trypsin; Orbitrap LC MS/MS

binding	Binder
binds	B8

Molecular target: NRPE1-FLAG (Arabidopsis thaliana) (UniProt Q5D869)
Experiment: affinity purification with mass spectrometry; dimethylated anti-FLAG antibody purification with forward and reciprocal 14N/15N metabolic labelling of Col-0 wild-type and NRPE1-FLAG transgenic seedlings; H/L ratios by LC MS/MS to tell specific from non-specific proteins

binding	Binder
binds	B9
no binding	B10
binds	B11
binds	B12
binds	B13
binds	B14
binds	B15
